In PMC9220252:
Positions count from the first letter of the chain named. These are yes or no findings as the source states them, for the method shown. In cells and extracts the contact can be indirect. Some binding calls cover weakened binding; strength is not graded here. For part of these data: Tags and fused reporters may be left off the sequences shown.

Sequences of proteins named here, by UniProt entry; tags and fusion partners are left off.
UniProt Q16665: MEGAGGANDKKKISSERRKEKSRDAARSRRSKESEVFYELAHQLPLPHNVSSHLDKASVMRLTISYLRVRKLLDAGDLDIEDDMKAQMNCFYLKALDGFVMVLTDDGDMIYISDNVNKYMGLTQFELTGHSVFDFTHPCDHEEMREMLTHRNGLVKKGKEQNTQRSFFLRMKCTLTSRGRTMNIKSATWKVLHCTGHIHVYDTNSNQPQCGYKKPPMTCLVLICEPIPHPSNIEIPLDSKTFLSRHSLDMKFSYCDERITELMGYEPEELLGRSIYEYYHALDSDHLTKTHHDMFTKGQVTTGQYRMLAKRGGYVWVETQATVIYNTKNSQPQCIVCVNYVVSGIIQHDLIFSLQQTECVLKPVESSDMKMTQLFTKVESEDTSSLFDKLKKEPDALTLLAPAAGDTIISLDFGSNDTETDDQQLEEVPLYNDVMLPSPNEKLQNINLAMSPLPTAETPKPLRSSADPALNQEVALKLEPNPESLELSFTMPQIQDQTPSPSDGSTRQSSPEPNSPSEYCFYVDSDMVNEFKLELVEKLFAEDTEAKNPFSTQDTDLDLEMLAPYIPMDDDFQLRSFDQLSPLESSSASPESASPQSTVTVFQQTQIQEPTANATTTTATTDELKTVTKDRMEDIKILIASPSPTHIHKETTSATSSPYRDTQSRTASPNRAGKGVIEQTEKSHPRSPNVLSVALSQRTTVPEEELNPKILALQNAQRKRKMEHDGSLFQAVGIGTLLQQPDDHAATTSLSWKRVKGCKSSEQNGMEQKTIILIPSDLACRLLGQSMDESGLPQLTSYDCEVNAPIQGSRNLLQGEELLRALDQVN
UniProt Q09472: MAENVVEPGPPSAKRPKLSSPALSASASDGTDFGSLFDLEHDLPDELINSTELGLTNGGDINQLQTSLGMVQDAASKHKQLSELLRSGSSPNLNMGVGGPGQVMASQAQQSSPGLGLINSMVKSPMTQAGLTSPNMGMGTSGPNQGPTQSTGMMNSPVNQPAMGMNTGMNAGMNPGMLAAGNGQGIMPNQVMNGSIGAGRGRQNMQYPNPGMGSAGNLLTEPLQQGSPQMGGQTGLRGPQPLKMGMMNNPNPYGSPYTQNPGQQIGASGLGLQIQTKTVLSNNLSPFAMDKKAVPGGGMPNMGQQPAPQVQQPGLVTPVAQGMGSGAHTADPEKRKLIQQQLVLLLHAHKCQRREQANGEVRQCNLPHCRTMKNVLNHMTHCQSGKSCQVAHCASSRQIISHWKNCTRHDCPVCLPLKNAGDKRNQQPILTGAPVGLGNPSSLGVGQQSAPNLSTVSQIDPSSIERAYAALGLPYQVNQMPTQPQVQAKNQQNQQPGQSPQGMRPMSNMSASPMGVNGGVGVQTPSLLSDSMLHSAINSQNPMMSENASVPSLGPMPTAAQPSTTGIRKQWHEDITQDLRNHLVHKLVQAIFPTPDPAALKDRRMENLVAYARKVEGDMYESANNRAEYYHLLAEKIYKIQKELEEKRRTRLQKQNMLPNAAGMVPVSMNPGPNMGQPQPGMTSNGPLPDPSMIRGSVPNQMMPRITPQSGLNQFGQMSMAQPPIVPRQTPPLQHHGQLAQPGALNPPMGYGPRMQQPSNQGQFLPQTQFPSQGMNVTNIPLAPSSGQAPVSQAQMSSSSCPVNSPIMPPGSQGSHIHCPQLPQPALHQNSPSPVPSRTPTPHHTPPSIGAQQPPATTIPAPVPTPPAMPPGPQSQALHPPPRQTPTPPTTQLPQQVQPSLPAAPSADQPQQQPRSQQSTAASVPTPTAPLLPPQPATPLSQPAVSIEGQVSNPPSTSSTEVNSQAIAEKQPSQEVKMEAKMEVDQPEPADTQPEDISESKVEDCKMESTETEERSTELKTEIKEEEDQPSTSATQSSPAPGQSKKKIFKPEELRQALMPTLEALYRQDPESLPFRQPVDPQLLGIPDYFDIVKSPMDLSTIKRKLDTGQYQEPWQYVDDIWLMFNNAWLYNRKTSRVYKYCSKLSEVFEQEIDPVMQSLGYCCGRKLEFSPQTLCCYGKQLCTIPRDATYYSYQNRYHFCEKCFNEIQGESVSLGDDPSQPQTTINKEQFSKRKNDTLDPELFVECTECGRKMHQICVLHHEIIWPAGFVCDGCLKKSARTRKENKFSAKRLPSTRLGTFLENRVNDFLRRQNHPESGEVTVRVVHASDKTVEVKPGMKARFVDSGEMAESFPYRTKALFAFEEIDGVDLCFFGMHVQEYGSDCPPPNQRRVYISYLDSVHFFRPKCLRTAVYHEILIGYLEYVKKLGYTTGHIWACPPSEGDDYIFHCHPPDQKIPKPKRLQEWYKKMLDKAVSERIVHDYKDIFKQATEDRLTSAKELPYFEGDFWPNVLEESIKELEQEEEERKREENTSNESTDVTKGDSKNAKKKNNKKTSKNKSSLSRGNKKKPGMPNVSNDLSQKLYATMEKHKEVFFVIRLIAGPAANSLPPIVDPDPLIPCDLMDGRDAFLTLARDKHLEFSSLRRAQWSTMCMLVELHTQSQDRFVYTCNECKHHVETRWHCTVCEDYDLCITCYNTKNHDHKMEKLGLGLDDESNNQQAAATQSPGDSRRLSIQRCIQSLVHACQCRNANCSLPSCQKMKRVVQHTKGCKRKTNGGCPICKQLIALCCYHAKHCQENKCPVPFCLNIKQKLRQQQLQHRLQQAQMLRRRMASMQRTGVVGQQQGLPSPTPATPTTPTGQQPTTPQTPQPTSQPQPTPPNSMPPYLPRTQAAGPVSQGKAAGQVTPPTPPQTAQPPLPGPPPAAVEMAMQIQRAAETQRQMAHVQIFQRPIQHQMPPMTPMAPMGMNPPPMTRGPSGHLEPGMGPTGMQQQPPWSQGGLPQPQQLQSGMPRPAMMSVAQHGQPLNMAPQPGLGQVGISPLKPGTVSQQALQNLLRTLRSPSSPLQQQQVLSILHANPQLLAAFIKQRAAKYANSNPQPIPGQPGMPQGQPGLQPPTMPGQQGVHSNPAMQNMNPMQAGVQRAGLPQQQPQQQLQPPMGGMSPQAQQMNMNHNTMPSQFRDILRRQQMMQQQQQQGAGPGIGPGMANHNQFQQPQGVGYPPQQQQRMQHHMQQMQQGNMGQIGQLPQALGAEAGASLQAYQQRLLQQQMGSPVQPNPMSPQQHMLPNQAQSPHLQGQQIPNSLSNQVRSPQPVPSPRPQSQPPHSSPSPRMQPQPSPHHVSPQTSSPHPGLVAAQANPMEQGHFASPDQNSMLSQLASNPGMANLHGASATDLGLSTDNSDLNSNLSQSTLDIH
UniProt P14618: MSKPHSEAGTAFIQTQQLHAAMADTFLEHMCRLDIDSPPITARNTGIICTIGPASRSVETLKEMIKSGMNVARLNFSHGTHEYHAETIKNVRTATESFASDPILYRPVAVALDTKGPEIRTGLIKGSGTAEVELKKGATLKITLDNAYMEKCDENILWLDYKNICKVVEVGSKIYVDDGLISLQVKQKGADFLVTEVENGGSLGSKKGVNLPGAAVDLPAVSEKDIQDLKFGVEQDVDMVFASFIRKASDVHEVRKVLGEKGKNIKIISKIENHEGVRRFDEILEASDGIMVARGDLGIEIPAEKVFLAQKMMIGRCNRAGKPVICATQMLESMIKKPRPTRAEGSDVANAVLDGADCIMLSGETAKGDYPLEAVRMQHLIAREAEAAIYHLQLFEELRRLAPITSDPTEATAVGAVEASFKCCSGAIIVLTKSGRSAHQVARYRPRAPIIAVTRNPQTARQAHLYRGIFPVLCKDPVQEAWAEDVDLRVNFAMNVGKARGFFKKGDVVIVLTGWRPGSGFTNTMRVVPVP
UniProt P53396: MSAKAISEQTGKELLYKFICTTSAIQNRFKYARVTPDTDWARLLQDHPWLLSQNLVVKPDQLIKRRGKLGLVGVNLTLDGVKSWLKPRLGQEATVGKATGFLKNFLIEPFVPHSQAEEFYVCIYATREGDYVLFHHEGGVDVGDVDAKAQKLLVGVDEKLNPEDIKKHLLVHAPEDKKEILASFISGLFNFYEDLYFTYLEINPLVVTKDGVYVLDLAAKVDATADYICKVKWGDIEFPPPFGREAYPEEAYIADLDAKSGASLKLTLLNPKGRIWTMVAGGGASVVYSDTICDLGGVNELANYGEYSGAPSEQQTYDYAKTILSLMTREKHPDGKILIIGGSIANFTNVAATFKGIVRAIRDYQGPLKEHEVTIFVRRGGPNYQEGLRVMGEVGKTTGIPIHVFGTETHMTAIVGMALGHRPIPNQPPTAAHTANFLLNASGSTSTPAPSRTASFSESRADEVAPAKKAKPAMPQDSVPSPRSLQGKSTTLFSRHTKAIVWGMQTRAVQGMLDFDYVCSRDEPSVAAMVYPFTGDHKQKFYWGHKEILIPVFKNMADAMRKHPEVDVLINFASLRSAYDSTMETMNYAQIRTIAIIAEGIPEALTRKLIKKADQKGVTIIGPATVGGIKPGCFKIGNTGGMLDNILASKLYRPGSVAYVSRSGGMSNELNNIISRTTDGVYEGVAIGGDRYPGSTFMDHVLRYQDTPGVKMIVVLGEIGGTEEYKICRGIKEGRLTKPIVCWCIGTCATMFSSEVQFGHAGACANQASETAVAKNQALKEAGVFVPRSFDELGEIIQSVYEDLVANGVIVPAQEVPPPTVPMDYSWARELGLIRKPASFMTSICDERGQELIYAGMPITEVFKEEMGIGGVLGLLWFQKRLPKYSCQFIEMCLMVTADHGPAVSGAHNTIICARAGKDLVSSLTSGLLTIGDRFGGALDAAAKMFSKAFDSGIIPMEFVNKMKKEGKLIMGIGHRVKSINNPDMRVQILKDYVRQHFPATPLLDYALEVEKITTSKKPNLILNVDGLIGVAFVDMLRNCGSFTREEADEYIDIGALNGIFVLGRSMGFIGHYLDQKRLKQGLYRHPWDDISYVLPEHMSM

What was measured:
[1] = biological target: T1, p-Ser293 PDHA1 (p-PDHA1), HepG2 cells (human (endogenous in HepG2)) (UniProt P08559); assay: co-IP; endogenous proteins immunoprecipitated with specific antibody and protein A/G beads from lysates of HepG2 cells stimulated with insulin (100 nM); SDS-PAGE and Western blotting
T1 sequence (chain, phosphoserine at Ser293): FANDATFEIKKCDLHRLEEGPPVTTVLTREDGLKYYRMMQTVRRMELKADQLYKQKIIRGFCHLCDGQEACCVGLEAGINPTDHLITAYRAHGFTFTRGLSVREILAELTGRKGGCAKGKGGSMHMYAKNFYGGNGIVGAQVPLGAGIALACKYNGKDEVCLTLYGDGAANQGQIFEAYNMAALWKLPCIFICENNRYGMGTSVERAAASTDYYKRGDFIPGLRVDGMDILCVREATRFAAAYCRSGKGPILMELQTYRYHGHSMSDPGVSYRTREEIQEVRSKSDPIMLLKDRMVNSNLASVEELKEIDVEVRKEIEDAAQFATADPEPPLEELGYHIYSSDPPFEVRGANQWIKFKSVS

GST-PDHA1 S293D [2] = biological target: T2, GST-PDHA1 S293D (UniProt P08559); assay: condition: only lysates of control HepG2 cells not stimulated with insulin; pull-down; purified recombinant GST-PDHA1 beads incubated with lysates of control HepG2 cells (no insulin); bound PKM2 by immunoblotting; only the target purified
T2 sequence: T1 sequence (chain, phosphoserine at Ser293) with S264D

[3] = biological target: HIF-1α, HepG2 cells (human (endogenous in HepG2)) (UniProt Q16665); assay: co-IP; endogenous proteins immunoprecipitated with specific antibody and protein A/G beads from lysates of HepG2 cells stimulated with insulin (100 nM); SDS-PAGE and Western blotting
[4] = biological target: p300 histone acetyltransferase (HAT), HepG2 cells (human (endogenous in HepG2)) (UniProt Q09472); assay: as above
GST-PDHA1 S293D [5] = biological target: T2, GST-PDHA1 S293D; assay: pull-down; purified recombinant GST-PDHA1 beads incubated with lysates of HepG2 cells treated with insulin 100 nM for 48 h; bound PKM2 by immunoblotting; only the target purified

Substance: p300 histone acetyltransferase (HAT), HepG2 cells (from UniProt Q09472 1-2414)
- binding [1]: binds

Substance: Pyruvate kinase M2 (PKM2), HepG2 cells (from UniProt P14618 1-531)
- binding (GST-PDHA1 S293D [2]): no binding
- binding [3]: binds
- binding [4]: binds
- binding (GST-PDHA1 S293D [5]): binds

Substance: ATP citrate lyase (ACL), HepG2 cells (from UniProt P53396 1-1101)
- binding [1]: binds
